Test results from the supplement of paper PMC12819154, “High-throughput peptide-centric local stability assay extends protein–ligand identification to membrane proteins, tissues and bacteria” (Nature Structural & Molecular Biology, 2025).
The other results are listed elsewhere or left out. Most entries show no effect beyond the scatter of the controls.

Chains of the proteins cited; added tags and fusions are not shown. Lines headed by an entry give the natural chain unless they say otherwise; changes in a name come on top.
UniProt Q9H1Y0: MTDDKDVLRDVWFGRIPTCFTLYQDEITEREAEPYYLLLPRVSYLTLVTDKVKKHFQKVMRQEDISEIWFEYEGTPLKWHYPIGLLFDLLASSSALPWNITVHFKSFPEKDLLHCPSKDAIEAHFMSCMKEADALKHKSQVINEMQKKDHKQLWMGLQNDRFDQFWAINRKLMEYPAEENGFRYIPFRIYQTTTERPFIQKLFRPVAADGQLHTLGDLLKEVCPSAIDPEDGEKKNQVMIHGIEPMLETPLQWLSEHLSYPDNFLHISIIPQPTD
UniProt Q9H0Y0: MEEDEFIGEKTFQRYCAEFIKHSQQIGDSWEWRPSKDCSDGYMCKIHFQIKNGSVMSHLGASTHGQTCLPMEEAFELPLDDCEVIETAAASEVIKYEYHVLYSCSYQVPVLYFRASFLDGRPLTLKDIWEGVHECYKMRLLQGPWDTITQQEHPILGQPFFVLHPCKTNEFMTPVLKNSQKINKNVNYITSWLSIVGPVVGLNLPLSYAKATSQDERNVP
UniProt Q9H0U4: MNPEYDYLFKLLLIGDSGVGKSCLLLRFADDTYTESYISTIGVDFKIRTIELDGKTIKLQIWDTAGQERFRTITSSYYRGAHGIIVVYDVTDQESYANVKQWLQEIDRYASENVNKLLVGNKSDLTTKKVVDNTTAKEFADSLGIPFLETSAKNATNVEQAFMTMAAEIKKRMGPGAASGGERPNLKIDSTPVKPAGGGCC
UniProt Q9C0F3: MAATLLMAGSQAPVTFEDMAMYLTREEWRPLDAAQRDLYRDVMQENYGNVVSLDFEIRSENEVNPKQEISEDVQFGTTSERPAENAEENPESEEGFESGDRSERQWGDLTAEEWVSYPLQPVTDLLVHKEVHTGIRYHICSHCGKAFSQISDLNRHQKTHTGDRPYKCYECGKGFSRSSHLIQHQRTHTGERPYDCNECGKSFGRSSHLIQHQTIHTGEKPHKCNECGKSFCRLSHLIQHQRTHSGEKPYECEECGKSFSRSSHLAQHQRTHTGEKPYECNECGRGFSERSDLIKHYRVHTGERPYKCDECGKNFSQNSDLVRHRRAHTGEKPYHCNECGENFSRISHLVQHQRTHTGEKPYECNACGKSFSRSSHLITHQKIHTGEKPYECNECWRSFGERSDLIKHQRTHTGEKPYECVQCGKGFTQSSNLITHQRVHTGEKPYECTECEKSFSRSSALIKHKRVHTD
UniProt Q9BZL4: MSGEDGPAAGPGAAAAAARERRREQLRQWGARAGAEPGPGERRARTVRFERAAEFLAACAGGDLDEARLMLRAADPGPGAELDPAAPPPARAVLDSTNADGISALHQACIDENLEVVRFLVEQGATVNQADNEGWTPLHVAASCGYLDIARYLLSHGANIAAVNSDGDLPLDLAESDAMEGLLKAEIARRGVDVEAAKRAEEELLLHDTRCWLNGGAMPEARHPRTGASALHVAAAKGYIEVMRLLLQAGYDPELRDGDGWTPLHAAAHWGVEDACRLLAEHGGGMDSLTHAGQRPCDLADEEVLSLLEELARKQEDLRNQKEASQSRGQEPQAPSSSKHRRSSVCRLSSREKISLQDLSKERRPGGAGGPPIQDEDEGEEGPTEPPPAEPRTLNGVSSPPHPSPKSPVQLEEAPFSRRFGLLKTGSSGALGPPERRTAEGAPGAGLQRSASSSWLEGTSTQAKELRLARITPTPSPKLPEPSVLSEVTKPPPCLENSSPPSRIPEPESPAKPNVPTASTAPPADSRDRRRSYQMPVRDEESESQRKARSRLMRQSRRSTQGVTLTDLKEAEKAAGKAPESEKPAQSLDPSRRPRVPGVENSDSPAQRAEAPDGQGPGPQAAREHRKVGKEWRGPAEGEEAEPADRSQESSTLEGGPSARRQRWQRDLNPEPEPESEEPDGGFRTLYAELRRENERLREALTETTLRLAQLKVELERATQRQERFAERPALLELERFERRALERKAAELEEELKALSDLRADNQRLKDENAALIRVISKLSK
UniProt Q9BZD4: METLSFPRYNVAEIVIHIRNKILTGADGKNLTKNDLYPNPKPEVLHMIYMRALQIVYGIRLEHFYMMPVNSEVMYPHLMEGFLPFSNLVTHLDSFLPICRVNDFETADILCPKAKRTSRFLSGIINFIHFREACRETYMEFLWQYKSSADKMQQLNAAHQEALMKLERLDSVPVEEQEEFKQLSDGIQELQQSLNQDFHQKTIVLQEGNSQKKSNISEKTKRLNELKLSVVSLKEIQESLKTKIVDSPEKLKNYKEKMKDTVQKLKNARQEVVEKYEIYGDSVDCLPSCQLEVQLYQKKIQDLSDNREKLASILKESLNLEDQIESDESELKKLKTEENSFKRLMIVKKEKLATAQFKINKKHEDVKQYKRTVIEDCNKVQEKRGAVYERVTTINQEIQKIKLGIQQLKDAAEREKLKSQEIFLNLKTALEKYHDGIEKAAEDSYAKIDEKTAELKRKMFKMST
UniProt Q9H3S7: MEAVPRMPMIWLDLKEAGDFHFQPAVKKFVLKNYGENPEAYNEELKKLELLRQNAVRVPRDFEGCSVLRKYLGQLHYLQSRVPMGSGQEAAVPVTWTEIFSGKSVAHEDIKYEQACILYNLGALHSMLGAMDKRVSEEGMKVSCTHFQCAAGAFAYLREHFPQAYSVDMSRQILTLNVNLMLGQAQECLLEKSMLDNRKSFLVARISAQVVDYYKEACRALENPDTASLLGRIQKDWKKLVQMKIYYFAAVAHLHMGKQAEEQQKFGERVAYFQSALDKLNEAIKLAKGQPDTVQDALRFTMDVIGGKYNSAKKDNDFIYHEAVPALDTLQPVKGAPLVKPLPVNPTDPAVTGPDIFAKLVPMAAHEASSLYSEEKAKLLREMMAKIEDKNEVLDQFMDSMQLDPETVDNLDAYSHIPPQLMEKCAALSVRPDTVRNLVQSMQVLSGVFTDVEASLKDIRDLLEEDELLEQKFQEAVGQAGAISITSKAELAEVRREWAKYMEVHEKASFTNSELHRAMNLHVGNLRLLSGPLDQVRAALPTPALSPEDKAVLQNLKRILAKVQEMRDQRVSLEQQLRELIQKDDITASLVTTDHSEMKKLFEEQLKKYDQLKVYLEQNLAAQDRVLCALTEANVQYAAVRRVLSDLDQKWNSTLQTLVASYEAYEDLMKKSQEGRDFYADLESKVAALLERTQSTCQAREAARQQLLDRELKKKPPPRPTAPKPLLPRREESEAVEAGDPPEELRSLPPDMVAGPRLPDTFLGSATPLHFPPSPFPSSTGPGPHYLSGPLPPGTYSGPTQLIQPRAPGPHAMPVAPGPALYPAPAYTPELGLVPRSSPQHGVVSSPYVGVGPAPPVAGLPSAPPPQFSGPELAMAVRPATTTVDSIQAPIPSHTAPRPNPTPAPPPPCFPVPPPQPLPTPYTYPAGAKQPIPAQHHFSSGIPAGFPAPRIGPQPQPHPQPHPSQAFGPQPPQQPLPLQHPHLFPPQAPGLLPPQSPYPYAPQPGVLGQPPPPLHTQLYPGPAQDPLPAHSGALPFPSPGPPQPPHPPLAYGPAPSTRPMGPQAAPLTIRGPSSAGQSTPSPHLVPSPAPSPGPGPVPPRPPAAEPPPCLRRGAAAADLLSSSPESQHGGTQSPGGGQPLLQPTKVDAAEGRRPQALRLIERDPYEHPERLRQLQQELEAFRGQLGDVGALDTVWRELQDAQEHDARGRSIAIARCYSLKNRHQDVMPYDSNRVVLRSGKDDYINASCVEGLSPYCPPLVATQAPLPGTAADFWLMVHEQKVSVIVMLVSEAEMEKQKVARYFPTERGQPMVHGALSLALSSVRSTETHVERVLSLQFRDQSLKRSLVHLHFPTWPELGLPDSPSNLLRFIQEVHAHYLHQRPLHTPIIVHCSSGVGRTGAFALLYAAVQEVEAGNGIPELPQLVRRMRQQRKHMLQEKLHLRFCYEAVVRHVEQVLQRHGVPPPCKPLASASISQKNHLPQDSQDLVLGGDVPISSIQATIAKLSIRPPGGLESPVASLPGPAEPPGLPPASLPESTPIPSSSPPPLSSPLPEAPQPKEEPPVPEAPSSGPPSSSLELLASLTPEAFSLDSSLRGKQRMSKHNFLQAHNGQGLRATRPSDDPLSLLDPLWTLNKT
UniProt Q9C099: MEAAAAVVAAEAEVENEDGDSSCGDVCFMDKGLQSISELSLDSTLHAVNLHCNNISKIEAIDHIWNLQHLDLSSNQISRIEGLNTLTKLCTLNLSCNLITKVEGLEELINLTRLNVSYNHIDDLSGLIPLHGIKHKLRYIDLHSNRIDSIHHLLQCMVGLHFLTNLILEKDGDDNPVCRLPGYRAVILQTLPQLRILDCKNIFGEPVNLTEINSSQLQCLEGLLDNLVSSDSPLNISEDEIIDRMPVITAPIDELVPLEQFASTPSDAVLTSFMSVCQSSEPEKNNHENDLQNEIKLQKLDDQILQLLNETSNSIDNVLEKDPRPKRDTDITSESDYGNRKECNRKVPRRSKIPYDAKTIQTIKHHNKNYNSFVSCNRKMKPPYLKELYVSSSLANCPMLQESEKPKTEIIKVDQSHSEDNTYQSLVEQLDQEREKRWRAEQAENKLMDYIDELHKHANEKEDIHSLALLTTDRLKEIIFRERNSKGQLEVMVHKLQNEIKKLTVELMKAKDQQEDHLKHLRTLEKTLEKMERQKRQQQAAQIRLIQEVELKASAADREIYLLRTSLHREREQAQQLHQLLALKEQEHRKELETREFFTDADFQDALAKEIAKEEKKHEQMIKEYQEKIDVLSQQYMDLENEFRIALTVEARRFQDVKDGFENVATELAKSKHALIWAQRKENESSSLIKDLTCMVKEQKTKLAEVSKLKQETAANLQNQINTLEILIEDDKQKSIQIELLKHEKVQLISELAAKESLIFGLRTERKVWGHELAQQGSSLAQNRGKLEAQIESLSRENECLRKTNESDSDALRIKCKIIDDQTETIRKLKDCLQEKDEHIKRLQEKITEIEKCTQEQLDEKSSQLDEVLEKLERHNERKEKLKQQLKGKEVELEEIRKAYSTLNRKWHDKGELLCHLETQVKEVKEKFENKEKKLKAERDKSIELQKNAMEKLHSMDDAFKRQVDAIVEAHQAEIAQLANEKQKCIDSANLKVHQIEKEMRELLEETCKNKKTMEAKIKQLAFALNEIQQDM
UniProt Q9H204: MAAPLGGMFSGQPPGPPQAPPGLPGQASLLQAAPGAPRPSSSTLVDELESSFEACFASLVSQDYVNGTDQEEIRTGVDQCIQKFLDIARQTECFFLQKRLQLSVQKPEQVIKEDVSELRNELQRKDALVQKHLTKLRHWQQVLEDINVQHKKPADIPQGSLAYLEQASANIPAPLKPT

Compound: CN[C@@H]1C[C@H]2O[C@@](C)([C@@H]1OC)n1c3ccccc3c3c4c(c5c6ccccc6n2c5c31)C(=O)NC4 [staurosporine]
Assay: log2 fold change of tryptic peptide abundance, ligand vs vehicle (limited proteolysis) (log2 ratio); higher = more trypsin-susceptible (destabilized)
Settings: ligand concentration: 20 uM; sample: K562 cleared lysate; digestion: 4 min, 22 C (HT-PELSA RT4min, Orbitrap Astral)

| Target | log2 fold change |
| --- | --- |
| ATG5 (peptide sequence: LFRPVAADGQLHTLGDLLK, peptide start residue: 202) (UniProt Q9H1Y0) | -0.289 |
| ATG10 (peptide sequence: ASFLDGRPLTLK, peptide start residue: 115) (UniProt Q9H0Y0) | -0.164 |
| RAB1B (peptide sequence: MGPGAASGGERPNLK, peptide start residue: 173) (UniProt Q9H0U4) | 0.562 |
| UniProt Q9C0F3 (peptide sequence: VHTGEKPYECTECEK, peptide start residue: 439) | -1.18 |
| PPP1R12C (peptide sequence: TGASALHVAAAK, peptide start residue: 226) (UniProt Q9BZL4) | 0.365 |
| NUF2 (peptide sequence: EIQESLKTK, peptide start residue: 235) (UniProt Q9BZD4) | 0.973 |
| PTPN23 (peptide sequence: REESEAVEAGDPPEELR, peptide start residue: 730) (UniProt Q9H3S7) | -0.101 |
| LRRCC1 (peptide sequence: LIQEVELK, peptide start residue: 545) (UniProt Q9C099) | -0.158 |
| MED28 (peptide sequence: TGVDQCIQK, peptide start residue: 75) (UniProt Q9H204) | -0.0649 |
